Measurements published in publication PMC5605516.
Results are given in words; binding and its absence hold for the method and conditions named. Binding can be weak; no strength is given. For some assays here: Binding seen in cells or lysates may run through a third protein.

Amino acid sequences for entries named in this document (tags omitted). A change or cut given only in a name is not applied to a line headed by its entry. Chains listed by the source or under a name are the forms on record and can include a tag or linker. Residues count along the entry.
UniProt Q15942: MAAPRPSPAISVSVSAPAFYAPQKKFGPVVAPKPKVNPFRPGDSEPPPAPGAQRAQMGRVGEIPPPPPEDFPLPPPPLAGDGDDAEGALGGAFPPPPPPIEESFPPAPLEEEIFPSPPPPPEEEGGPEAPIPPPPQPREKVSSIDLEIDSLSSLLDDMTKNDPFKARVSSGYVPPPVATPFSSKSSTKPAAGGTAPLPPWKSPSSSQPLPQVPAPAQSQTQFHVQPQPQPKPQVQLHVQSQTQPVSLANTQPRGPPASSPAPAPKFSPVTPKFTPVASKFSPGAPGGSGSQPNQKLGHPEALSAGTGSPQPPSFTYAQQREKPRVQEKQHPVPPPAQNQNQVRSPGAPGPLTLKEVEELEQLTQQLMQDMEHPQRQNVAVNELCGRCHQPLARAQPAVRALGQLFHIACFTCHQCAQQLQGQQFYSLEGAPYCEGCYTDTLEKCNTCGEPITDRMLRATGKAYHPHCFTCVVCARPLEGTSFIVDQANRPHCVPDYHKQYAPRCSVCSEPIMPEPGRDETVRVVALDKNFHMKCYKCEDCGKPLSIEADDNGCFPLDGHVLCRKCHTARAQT
UniProt Q9BYX4: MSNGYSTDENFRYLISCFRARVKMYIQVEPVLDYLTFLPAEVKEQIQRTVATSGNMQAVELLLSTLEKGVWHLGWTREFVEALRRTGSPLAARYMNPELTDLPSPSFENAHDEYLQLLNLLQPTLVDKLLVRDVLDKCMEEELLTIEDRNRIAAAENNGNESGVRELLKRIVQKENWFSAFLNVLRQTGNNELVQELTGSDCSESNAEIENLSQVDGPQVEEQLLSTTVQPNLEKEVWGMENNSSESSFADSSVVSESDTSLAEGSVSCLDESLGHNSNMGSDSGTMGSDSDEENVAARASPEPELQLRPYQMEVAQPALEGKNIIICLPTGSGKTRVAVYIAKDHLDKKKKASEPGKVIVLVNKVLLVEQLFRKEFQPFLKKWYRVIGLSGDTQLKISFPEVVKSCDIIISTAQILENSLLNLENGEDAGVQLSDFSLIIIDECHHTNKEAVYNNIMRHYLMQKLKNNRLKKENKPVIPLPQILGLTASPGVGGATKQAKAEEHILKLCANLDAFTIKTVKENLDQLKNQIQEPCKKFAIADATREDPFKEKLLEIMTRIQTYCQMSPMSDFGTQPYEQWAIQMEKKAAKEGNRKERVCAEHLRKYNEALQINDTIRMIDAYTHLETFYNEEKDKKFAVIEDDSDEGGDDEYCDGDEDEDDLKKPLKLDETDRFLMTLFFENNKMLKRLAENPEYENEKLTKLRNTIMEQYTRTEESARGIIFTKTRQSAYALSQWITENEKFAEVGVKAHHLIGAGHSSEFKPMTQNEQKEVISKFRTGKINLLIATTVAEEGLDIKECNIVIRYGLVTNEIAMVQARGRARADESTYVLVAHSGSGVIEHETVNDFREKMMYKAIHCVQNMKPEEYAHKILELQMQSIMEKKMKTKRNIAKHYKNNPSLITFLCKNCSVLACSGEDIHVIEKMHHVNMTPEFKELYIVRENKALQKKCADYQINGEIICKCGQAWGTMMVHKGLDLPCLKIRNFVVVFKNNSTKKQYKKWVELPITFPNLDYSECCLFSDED
UniProt Q7Z434: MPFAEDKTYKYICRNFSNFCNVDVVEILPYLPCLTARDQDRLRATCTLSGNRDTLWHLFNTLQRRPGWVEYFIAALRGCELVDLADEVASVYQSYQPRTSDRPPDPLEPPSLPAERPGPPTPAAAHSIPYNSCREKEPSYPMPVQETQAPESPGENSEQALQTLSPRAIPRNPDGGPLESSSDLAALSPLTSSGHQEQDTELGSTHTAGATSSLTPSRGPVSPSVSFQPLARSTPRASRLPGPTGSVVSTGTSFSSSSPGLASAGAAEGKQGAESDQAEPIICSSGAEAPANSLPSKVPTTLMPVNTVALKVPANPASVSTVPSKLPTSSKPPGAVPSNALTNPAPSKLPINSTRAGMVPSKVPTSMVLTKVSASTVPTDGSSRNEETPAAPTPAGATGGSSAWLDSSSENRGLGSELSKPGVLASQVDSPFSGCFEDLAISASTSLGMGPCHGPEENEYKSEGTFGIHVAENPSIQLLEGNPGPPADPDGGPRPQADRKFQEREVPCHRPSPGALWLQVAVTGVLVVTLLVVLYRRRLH
MAVS CARD fragment fused to the Gal4 DNA-binding domain: residues 10-77 of Q7Z434
UniProt O95786: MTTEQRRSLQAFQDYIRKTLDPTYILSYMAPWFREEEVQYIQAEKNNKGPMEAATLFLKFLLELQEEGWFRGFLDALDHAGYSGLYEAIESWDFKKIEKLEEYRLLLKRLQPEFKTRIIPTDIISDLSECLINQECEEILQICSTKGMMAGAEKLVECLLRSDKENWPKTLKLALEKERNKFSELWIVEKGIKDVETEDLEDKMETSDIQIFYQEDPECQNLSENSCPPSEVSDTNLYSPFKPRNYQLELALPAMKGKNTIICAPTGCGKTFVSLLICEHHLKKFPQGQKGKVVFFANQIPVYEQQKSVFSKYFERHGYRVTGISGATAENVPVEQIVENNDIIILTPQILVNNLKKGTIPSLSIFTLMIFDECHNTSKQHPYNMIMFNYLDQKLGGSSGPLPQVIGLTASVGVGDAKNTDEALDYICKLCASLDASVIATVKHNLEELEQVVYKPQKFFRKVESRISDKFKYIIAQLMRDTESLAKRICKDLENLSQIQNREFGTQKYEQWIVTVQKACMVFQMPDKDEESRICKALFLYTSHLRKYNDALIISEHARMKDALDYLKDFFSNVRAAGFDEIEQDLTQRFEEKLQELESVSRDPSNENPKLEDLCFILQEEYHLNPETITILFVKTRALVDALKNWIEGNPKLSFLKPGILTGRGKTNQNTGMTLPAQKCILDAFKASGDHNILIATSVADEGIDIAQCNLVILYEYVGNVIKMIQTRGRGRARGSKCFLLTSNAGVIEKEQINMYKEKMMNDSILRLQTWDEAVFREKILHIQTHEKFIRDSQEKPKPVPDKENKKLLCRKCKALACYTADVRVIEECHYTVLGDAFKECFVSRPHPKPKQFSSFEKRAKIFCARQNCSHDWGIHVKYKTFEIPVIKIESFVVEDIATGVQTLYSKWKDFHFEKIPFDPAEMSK

What was measured:
[1] = biological target: zyxin C-terminal fragment, HA-tagged (human) (UniProt Q15942); assay: co-IP; HEK293FT transfected for 24 h with Zyxin-HA fragments and FLAG-MAVS or FLAG-RIG-I; IP with anti-HA antibody, western blot
[2] = biological target: zyxin N-terminal fragment, HA-tagged (human) (UniProt Q15942); assay: as above
FLAG-tagged MDA5 = FLAG-tagged MDA5 (UniProt Q9BYX4); assay: co-IP
[3] = biological target: MAVS CARD fragment fused to the Gal4 DNA-binding domain (bait) (UniProt Q7Z434); assay: two-hybrid; screen: MAVS CARD bait (pGBKT7) against a human lung cDNA library (prey) in AH109 yeast; SD-WLH and SD-WLHA selection plates
[4] = biological target: MAVS CARD fragment fused to the Gal4 DNA-binding domain (bait) (UniProt Q7Z434); assay: two-hybrid; retest: AH109 yeast transformed with MAVS CARD bait and zyxin C-terminal region prey; growth on selective medium (SD-WLH in the text, SD-WLHA in the legend); empty prey plasmid as control

binding [1]	binding [2]	binding (FLAG-tagged MDA5)	Substance	other results
binds	no binding	–	FLAG-tagged MAVS (from UniProt Q7Z434 1-540)	–
binds	binds	–	FLAG-tagged RIG-I (from UniProt O95786 1-925)	–
–	–	binds	zyxin C-terminal fragment, HA-tagged (from UniProt Q15942) (domain or fragment)	–
–	–	–	zyxin C-terminal region fused to the Gal4 activation domain (prey) (from UniProt Q15942) (domain or fragment)	binding [3]: binds; binding [4]: binds
–	–	binds	zyxin N-terminal fragment, HA-tagged (from UniProt Q15942) (domain or fragment)	–
